Data from the supplement of paper PMC10849652.
The other results are listed elsewhere or left out.

The chains behind the UniProt entries cited, without tags or fusion partners. Where a name states a change or a piece, a line headed by the entry shows the natural chain unless it says otherwise.
UniProt Q9NVN3: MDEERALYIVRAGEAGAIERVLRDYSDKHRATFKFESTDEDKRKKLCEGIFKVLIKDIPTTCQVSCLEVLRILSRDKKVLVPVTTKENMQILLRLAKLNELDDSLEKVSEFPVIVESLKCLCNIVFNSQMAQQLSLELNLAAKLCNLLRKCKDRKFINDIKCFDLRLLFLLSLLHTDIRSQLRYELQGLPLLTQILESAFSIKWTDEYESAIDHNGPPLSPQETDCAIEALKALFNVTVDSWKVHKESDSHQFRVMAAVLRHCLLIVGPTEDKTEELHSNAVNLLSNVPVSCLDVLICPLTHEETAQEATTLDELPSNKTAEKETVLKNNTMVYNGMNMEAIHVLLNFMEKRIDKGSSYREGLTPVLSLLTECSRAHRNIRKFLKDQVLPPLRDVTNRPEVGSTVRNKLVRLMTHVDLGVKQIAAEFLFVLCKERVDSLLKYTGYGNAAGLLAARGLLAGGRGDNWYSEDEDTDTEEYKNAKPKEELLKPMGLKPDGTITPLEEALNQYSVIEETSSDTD
UniProt Q01974, whole entry, looked up: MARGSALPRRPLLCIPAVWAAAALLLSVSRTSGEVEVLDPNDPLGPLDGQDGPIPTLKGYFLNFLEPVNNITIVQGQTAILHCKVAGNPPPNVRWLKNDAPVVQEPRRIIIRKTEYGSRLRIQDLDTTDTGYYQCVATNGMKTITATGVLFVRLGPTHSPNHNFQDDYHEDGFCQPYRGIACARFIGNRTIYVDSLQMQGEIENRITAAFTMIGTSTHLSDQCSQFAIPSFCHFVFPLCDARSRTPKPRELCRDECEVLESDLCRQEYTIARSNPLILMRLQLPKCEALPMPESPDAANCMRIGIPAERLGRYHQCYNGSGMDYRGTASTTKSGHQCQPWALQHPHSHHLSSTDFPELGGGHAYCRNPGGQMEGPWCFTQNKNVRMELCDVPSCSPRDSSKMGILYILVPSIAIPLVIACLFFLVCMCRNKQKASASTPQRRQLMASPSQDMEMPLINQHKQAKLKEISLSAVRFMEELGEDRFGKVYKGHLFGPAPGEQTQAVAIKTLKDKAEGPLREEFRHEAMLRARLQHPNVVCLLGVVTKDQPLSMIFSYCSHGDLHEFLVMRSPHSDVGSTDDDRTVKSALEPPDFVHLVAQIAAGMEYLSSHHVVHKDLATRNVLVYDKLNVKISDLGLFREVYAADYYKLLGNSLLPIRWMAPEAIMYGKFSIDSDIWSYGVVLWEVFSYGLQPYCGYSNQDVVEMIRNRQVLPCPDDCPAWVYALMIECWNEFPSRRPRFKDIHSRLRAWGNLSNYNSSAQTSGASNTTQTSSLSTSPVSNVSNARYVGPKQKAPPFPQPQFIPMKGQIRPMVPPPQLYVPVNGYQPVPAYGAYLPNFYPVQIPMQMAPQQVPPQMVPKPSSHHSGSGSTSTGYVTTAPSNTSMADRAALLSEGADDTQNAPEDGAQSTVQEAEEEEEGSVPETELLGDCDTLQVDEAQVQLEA
UniProt Q9H9A7: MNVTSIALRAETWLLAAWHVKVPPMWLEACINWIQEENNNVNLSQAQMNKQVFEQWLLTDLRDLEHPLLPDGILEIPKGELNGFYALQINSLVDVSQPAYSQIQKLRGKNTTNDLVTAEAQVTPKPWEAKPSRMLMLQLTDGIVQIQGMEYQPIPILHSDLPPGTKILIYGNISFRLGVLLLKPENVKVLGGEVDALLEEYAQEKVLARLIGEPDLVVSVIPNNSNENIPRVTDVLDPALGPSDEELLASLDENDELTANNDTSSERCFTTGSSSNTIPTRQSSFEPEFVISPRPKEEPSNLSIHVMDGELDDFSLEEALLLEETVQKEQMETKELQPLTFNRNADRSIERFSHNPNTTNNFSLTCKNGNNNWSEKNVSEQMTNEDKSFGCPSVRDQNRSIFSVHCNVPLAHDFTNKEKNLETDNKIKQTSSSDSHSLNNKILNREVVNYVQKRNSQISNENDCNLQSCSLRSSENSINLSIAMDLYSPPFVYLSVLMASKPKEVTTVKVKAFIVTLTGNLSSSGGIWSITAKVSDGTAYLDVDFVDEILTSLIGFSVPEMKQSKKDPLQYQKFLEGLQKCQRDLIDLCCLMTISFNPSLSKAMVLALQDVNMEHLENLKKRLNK
UniProt P84095: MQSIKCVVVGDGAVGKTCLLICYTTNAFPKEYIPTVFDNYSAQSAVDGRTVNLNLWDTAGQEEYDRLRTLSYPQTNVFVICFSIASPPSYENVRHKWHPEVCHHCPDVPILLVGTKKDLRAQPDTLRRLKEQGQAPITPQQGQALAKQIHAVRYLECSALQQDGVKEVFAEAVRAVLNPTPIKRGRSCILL
UniProt Q9BV68: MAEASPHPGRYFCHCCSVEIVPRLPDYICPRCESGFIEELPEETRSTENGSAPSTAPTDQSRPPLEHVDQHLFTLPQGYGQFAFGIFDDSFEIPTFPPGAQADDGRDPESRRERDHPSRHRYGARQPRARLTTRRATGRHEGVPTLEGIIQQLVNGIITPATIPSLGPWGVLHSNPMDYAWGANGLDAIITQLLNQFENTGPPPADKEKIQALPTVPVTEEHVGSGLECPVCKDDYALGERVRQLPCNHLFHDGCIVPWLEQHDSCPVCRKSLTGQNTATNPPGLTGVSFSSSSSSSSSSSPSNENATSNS
UniProt Q9BXT8: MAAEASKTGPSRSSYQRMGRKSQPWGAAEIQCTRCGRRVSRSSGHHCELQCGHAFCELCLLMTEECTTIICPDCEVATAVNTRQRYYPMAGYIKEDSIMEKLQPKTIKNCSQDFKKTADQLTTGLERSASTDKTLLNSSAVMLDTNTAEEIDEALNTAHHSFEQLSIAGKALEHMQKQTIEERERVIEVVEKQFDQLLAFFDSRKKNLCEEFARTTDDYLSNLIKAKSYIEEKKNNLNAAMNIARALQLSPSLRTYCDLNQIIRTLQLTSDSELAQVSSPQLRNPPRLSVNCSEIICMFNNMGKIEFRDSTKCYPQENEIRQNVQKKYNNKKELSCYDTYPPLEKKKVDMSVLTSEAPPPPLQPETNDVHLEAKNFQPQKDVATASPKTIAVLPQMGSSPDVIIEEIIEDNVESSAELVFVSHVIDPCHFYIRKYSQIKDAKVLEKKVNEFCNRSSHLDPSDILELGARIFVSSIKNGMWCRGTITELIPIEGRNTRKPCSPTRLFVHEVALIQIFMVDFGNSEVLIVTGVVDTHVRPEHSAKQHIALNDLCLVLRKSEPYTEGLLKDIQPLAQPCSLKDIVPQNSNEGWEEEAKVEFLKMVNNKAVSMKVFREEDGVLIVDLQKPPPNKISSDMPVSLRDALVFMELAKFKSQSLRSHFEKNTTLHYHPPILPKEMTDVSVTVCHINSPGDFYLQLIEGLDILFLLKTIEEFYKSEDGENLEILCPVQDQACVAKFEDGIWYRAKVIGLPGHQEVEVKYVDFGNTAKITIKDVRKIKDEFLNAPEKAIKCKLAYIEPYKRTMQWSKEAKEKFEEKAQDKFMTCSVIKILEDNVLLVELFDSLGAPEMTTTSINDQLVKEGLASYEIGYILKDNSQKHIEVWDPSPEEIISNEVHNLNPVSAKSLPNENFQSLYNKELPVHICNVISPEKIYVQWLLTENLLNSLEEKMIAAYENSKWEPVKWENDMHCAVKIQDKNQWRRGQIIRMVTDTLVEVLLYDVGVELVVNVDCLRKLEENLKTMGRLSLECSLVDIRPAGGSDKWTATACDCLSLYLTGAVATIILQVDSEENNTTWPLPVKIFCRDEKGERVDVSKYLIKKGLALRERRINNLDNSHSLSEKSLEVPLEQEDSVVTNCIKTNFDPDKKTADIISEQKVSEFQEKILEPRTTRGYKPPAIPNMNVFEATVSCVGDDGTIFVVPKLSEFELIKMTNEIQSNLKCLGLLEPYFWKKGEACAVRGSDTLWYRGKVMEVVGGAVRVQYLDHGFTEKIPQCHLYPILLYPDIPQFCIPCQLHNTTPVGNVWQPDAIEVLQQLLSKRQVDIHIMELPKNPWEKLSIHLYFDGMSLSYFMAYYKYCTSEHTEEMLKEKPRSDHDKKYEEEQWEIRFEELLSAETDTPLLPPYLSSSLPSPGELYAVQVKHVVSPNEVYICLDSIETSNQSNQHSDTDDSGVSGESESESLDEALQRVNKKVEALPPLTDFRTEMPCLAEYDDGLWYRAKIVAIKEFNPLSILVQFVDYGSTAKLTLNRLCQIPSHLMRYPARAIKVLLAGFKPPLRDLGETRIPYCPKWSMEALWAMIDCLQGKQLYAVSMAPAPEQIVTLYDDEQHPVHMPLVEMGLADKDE
UniProt Q96LT9: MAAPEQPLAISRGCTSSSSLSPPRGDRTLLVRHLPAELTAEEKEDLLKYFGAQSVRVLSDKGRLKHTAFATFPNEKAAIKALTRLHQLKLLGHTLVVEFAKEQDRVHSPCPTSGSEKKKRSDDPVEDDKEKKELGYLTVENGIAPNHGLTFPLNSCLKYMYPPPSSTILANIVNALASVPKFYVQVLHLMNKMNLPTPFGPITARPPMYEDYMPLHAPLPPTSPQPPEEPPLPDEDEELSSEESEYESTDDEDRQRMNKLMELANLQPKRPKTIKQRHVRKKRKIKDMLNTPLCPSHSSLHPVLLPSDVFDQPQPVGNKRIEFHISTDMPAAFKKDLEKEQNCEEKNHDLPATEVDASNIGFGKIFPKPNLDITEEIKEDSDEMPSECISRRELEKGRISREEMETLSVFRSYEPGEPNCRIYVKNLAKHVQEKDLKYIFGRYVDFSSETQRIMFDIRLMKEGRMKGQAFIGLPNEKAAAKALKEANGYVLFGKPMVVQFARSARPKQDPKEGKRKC
UniProt O60930: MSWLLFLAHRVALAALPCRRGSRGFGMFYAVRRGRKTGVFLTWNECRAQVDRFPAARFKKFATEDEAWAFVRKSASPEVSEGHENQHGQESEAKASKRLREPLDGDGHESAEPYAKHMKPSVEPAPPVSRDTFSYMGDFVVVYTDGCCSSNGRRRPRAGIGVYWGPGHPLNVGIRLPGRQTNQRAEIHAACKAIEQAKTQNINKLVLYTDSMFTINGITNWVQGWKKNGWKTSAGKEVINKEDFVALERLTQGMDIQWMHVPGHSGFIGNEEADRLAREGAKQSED
UniProt Q96G75, whole entry, looked up: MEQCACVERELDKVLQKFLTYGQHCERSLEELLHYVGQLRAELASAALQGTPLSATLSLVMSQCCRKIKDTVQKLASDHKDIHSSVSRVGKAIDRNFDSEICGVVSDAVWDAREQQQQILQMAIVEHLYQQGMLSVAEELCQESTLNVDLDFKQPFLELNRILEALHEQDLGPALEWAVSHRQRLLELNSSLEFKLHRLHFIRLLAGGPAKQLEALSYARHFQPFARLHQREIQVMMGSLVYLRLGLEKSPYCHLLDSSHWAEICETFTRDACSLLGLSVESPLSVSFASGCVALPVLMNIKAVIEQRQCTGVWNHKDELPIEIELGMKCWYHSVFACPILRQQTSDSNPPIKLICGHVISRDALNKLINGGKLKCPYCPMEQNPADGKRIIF

Key:
Experiment in all cases: log2 fold change, soluble protein after heating vs DMSO (PISA); higher = thermal stabilisation; K562 lysate, 10 uM; active = over 0.2 and 3.5 SD of the protein, either way, in both replicates (recomputed)
[1] = compound: CS(=O)(=O)CCNCc1ccc(-c2ccc3ncnc(Nc4ccc(OCc5cccc(F)c5)c(Cl)c4)c3c2)o1 [lapatinib]
Procedure, shortened: (§1)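 Quantification was by TMTpro 16plex LC-MS/MS with equalised channel sums, applied to the supernatant after 21,000xg for 90 min. Samples were crude K562 extract at 1 mg/mL protein in PBS pH 7.4 with 1 mM MgCl2, treated with 10 μM compound for 30 min, heated for 3 min across 48°C-58°C, pooled and brought to 0.5% NP-40 at 4°C. Values are log-two fold changes in thermal stability relative to solvent controls, from duplicates.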

[2] = compound: CS(=O)(=O)N1CCN(Cc2cc3nc(-c4cccc5[nH]ncc45)nc(N4CCOCC4)c3s2)CC1 [pictilisib]
Procedure, shortened: as §1

[3] = compound: C[C@@H](Oc1cc(-c2cnn(C3CCNCC3)c2)cnc1N)c1c(Cl)ccc(F)c1Cl [crizotinib]
Procedure, shortened: as §1

[4] = compound: C[C@H](C1=CC=C(C=C1)C(=O)NC2=C3C=CNC3=NC=C2)N
Procedure, shortened: as §1

[5] = compound: C[C@H](Nc1ncnc2nc[nH]c12)c1cc2cccc(Cl)c2c(=O)n1-c1ccccc1 [duvelisib]
Procedure, shortened: as §1

[6] = compound: Cc1cc(Nc2cc(CN3CCOCC3)c3nc(C)c(Cc4ccc(Cl)cc4F)n3n2)n[nH]1 [gandotinib]
Procedure, shortened: as §1

[7] = compound: Cc1cc(Nc2cc(N3CCN(C)CC3)nc(Sc3ccc(NC(=O)C4CC4)cc3)n2)n[nH]1 [tozasertib]
Procedure, shortened: as §1

[8] = compound: Cc1ccc(-n2nc(C(C)(C)C)cc2NC(=O)Nc2ccc(OCCN3CCOCC3)c3ccccc23)cc1 [doramapimod]
Procedure, shortened: as §1

[9] = compound: Cc1ccc(NC(=O)c2ccc(CN3CC[C@H](N(C)C)C3)c(C(F)(F)F)c2)cc1Nc1nccc(-c2cncnc2)n1 [bafetinib]
Procedure, shortened: as §1

[10] = compound: Cc1cccc(CC(=O)N2CCc3c2ccc(-c2cn(C)c4ncnc(N)c24)c3F)n1
Procedure, shortened: as §1

[11] = compound: Cc1cn(-c2cc(NC(=O)c3ccc(C)c(Nc4nccc(-c5cccnc5)n4)c3)cc(C(F)(F)F)c2)cn1 [nilotinib]
Procedure, shortened: as §1

[12] = compound: Cc1nc(Nc2n[nH]c3c2CN(C(=O)N[C@H](CN(C)C)c2ccccc2)C3(C)C)c2sccc2n1
Procedure, shortened: as §1

[13] = compound: Cc1nc(Nc2ncc(C(=O)Nc3c(C)cccc3Cl)s2)cc(N2CCN(CCO)CC2)n1 [dasatinib]
Procedure, shortened: as §1

[14] = compound: Cc1ncc(-c2ccnc(Nc3ccc(S(C)(=O)=O)cc3)n2)n1C(C)C
Procedure, shortened: as §1

[15] = compound: Cn1cc(-c2ccc3c(c2)CCN3C(=O)Cc2cccc(C(F)(F)F)c2)c2c(N)ncnc21
Procedure, shortened: as §1

[16] = compound: Cn1cc(CNCC2CCN(c3ncc(C(=O)NO)cn3)CC2)c2ccccc21 [quisinostat]
Procedure, shortened: as §1

[17] = compound: Cn1cncc1[C@@](N)(c1ccc(Cl)cc1)c1ccc2c(c1)c(-c1cccc(Cl)c1)cc(=O)n2C [tipifarnib]
Procedure, shortened: as §1

[18] = compound: NC(=O)Nc1cc(-c2cccc(F)c2)sc1C(=O)N[C@H]1CCCNC1
Procedure, shortened: as §1

[19] = compound: NC(=O)c1cnc(N[C@@H]2CCCC[C@@H]2N)nc1Nc1cccc(-n2nccn2)c1
Procedure, shortened: as §1

[20] = compound: NC1(c2ccc(-c3nc4ccn5c(=O)[nH]nc5c4cc3-c3ccccc3)cc2)CCC1
Procedure, shortened: as §1

Measured: log2 fold change

RIC8B isoform 1 (UniProt Q9NVN3)
inactive: [1] 0.008 | [2] 0.016 | [3] -0.002 | [4] 0.038 | [5] -0.137 | [6] -0.064 | [7] 0.051 | [8] 0.031 | [9] -0.122 | [10] 0.03 | [11] 0.007 | [12] -0.041 | [13] 0 | [14] -0.012 | [15] -0.068 | [16] 0.008 | [17] 0.002 | [18] -0.02 | [19] -0.006 | [20] -0.022

ROR2 (UniProt Q01974)
inactive: [1] 0.003 | [2] -0.005 | [3] -0.135 | [4] -0.096 | [5] 0.03 | [6] 0.008 | [7] 0.007 | [8] 0.001 | [9] 0.007 | [10] 0.036 | [11] 0.029 | [12] 0.016 | [13] 0.021 | [14] -0.09 | [15] 0.002 | [16] -0.15 | [17] -0.039 | [18] 0.059 | [19] 0.02 | [20] 0.036

RMI1 (UniProt Q9H9A7)
inactive: [1] 0.127 | [2] -0.005 | [3] 0.059 | [4] -0.038 | [5] 0.025 | [6] -0.013 | [7] -0.034 | [8] -0.009 | [9] 0.026 | [10] 0.044 | [11] 0 | [12] -0.05 | [13] -0.041 | [14] -0.017 | [15] 0.05 | [16] -0.012 | [17] -0.146 | [18] 0.056 | [19] 0.004 | [20] 0.063

RHOG (UniProt P84095)
inactive: [1] -0.032 | [2] 0 | [3] -0.015 | [4] -0.031 | [5] -0.005 | [6] 0.019 | [7] 0.004 | [8] -0.013 | [9] 0.022 | [10] -0.002 | [11] 0.019 | [12] 0.001 | [13] 0.005 | [14] 0.039 | [15] -0.003 | [16] 0.057 | [17] 0.016 | [18] -0.04 | [19] -0.033 | [20] -0.006

RNF126 (UniProt Q9BV68)
inactive: [1] 0.053 | [2] 0.025 | [3] -0.071 | [4] -0.056 | [5] 0.069 | [6] -0.073 | [7] 0.116 | [8] -0.202 | [9] -0.101 | [10] 0.144 | [11] 0.075 | [12] 0.087 | [13] -0.195 | [14] 0.004 | [15] -0.184 | [16] 0.133 | [17] -0.121 | [18] -0.046 | [19] -0.04 | [20] -0.018

Reprinted from the listing (two entries):
RMI1 (UniProt Q9H9A7)
inactive: [1] 0.127 | [2] -0.005 | [3] 0.059 | [4] -0.038 | [5] 0.025 | [6] -0.013 | [7] -0.034 | [8] -0.009 | [9] 0.026 | [10] 0.044 | [11] 0 | [12] -0.05 | [13] -0.041 | [14] -0.017 | [15] 0.05 | [16] -0.012 | [17] -0.146 | [18] 0.056 | [19] 0.004 | [20] 0.063

RHOG (UniProt P84095)
inactive: [1] -0.032 | [2] 0 | [3] -0.015 | [4] -0.031 | [5] -0.005 | [6] 0.019 | [7] 0.004 | [8] -0.013 | [9] 0.022 | [10] -0.002 | [11] 0.019 | [12] 0.001 | [13] 0.005 | [14] 0.039 | [15] -0.003 | [16] 0.057 | [17] 0.016 | [18] -0.04 | [19] -0.033 | [20] -0.006

Next part:

RNF17 (UniProt Q9BXT8)
inactive: [1] -0.02 | [2] 0.031 | [3] 0.105 | [4] 0.08 | [5] -0.071 | [6] 0.028 | [7] 0.119 | [8] 0.006 | [9] -0.285 | [10] -0.257 | [13] -0.055 | [15] 0.061 | [16] 0.142 | [18] 0.054 | [19] 0.046 | [20] 0.043

RNPC3 (UniProt Q96LT9)
inactive: [1] -0.018 | [3] -0.043 | [4] 0.036 | [5] 0.072 | [6] 0.016 | [8] -0.115 | [10] -0.115 | [11] -0.104 | [12] 0.069 | [13] 0.042 | [14] 0.01 | [15] -0.061 | [16] -0.071 | [17] -0.075 | [18] -0.063 | [19] -0.056 | [20] 0.06

RNASEH1 (UniProt O60930)
inactive: [4] -0.014 | [6] -0.174 | [10] 0.274

RMND5B (UniProt Q96G75)
inactive: [4] 0.077 | [6] -0.037 | [10] -0.14
